Data source: PubChem BioAssay AID1259254 (NCATS, 2017)
This is one part, drawn at random, of about 59,000 reagents tested. Of all reagents, about 1,550 (2.6%) got an active call. 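G2 share is only a proxy for re-replication; each gene was hit by three separate siRNAs, and active genes were retested.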 A number with no mark means an inactive call. Reagents against one gene are numbered here. Not all columns of the deposit are shown. Not given: the amount of reagent.

Screen: 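Finding genes that stop cells copying their DNA twice in one cycle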 (primary screen)
System: human HCT116 colorectal cancer cells
Reagents: single siRNA against human genes
Duration: 3 days
Detection: 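Imaged Hoechst DNA stain sorts each cell into a cycle phase by DNA amount; per plate, G2 fraction set to 0% for non-targeting and 100% for GMNN siRNA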
Scale: G2 robust z-score: higher = more G2 cells, more excess DNA replication
Hit rule: 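An siRNA counts as active if its G2 robust z-score lies at least 5 MADs above the screen median; here such calls match roughly 38% of GMNN control or more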

G2 robust z-score, by gene and reagent
ALKBH7: #1 -0.24; #2 -0.79; #3 0.326
TM7SF3: #1 0.405; #2 -0.618; #3 -0.856
TWF2: #1 -1.09; #2 0.603; #3 1.49
VAT1L: #1 0.404; #2 0.501; #3 -0.983
RASSF8: #1 0.0999; #2 -0.905; #3 3.39
STXBP2: #1 1.46; #2 6.78 (active); #3 -0.543
KANK1: #1 4.51; #2 0.829; #3 -0.268
MAPK1IP1L: #1 -0.367; #2 -0.88; #3 0.575
AGMAT: #1 -0.615; #2 0.0451; #3 0.309
LCT: #1 2.97; #2 10.8 (active); #3 -0.764

Looked up above:
RASSF8 #1, G2 robust z-score = 0.0999
AGMAT #3, G2 robust z-score: 0.309
Result for RASSF8 #2 under “G2 robust z-score”: -0.905
Under “G2 robust z-score”, TM7SF3 #3 shows -0.856
Entry of LCT #1 in “G2 robust z-score”: 2.97

Continued.
G2 robust z-score, by gene and reagent
INTS8: #1 -0.57; #2 0.192; #3 0.617
TRPC3: #1 -0.554; #2 0.528; #3 0.308
SLC39A13: #1 -0.612; #2 0.234; #3 0.661
SLAIN1: #1 0.952; #2 -0.728; #3 0.0176
ASIC2: #1 6.69 (active); #2 -1.15; #3 0.662
LYPD6B: #1 -0.701; #2 -1.01; #3 -0.223
CENPB: #1 1.12; #2 4.81; #3 0.566
RBM10: #1 0.827; #2 0.906; #3 -0.527
GPR141: #1 0.168; #2 0.85; #3 -0.0311
PIR: #1 -1.11; #2 1.39; #3 1.44
ZNF519P3: #1 -0.793; #2 1.01; #3 -0.584
LOC729866 (retired record): #1 2.95; #2 -1.18; #3 -0.489
RITA1: #1 -1.11; #2 4.26; #3 0.309
